Assay results reported in patent publication US20100129806A1.
No constants are given. Whether binding was seen depends on the method and setting. For some of these results: In cells and extracts the contact can be indirect. Some entries that bind do so weakly or less than the wild type.

The chains behind the UniProt entries cited, without tags or fusion partners. Where a name states a change or a piece, a line headed by the entry shows the natural chain unless it says otherwise.
UniProt Q80V72: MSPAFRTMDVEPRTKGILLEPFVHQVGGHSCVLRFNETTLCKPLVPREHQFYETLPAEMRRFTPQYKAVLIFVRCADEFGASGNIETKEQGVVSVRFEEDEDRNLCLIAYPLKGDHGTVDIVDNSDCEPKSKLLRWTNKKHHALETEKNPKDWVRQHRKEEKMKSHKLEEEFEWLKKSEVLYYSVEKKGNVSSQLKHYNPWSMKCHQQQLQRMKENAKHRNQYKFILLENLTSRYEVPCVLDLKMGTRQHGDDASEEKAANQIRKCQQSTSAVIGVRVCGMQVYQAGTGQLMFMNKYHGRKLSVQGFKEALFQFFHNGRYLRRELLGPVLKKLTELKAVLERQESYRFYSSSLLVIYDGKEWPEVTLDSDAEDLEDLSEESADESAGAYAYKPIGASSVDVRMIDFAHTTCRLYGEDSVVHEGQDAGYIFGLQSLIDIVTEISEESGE
UniProt Q9UHH9: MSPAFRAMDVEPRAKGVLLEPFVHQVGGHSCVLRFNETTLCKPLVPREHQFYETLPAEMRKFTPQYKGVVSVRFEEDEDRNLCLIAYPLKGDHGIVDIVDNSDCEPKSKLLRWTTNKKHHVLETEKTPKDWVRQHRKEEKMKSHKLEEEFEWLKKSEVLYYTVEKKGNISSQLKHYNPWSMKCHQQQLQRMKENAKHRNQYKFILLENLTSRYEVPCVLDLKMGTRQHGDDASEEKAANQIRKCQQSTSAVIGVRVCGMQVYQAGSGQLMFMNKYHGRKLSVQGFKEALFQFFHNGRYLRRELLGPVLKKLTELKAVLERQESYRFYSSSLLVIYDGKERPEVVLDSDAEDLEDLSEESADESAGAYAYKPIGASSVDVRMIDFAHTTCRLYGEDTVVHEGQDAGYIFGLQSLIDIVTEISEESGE

What was measured:
[1] = target: endogenous HSP90 of mouse brain (mouse) (UniProt P07901); test: co-immunoprecipitation from mouse brain
[2] = target: endogenous HSP90 of mouse brain (mouse) (UniProt P07901); test: immunoprecipitation with HSP90 monoclonal antibody from mouse brain extract, IP6K2 immunoblot (FIG. 1D)
[3] = target: GST-HSP90 alpha fragment 629-732 (C-terminus, C), bacterially purified (human); test: in vitro binding of GST-HSP90 deletion constructs to immunoprecipitated myc-IP6K2
[4] = target: GST-HSP90 alpha fragment 629-732 (C-terminus, C), bacterially purified (human); test: in vitro binding of 250 nM GST-HSP90 WT and deletion constructs to immunoprecipitated myc-IP6K2, HSP90 immunoblot (FIG. 8B)

| binding [1] | binding [2] | binding [3] | binding [4] | Substance |
| --- | --- | --- | --- | --- |
| binds | binds |  |  | endogenous IP6K2 of mouse brain (from UniProt Q80V72 1-448) (enzyme) |
|  |  | binds | binds | myc-tagged IP6K2 (inositol hexakisphosphate kinase-2), wild type (from UniProt Q9UHH9 1-426) (enzyme) |
